From patent US11793218B2, “Sweetener and flavor compositions, methods of making and methods of use thereof” (EPC Natural Products Co., Ltd., priority 2018, dated 2023)

Columns and labels:
[1] = Sensory analysis of odor/smell, color and taste of Maillard reaction samples at 22 C (Examples 55-62); assay type: in vivo, human
Method: The reaction partners were dissolved in water and then warmed glycerin (60° C.) was added. […]
[…] After 20 minutes in the ice bath the sealed vials were put in a water bath set to 22° C.
The odor/smell was assessed independently by 3 persons; the final description was agreed after discussion. […] The taste was assessed independently by 3 persons either in the original samples or after appropriate dilution to achieve relevant concentrations of sugars and steviol-glycosides (i.e. 5-9% SE); the final description was agreed after discussion.

[2] = HPLC/DAD/MS detection of MRI (Amadori) products and degradation kinetics of reactants at various pH-conditions; conditions: reaction of Phe and Suc, % formation from degraded Phe
[3] = Table 56.1, negative controls (no carbohydrate source), 10 ml glycerin/water=9:1, 100° C., 40 minutes

| SMILES | Color [1, 3] | further results |
| --- | --- | --- |
| CC[C@H](C)[C@H](N)C(=O)O [13.11 mg Ile] | No color | – |
| N[C@@H](CO)C(=O)O [10.5 mg Ser] | Slightly Yellow | – |
| C[C@H](N)C(=O)O [8.91 mg Ala] | No color | – |
| N[C@@H](Cc1ccc(O)cc1)C(=O)O [18.1 mg Tyr] | No color | – |
| O=C(O)[C@@H]1CCCN1 [11.5 mg Pro] | Slightly Yellow | – |
| N[C@@H](Cc1ccccc1)C(=O)O [16.5 mg Phe] | – | Color ([1]; Example 58, before reaction): No color |
| N[C@@H](CS)C(=O)O [12.1 mg Cys] | Slightly Yellow | – |
| O=C(O)[C@H](Cc1ccccc1)NCC(=O)[C@@H](O)[C@H](O)[C@H](O)CO [MRI (Phe-Glu)] | – | % formation ([2]; pH = 5.5): <0.10%; % formation ([2]; pH = 7.0): 0.54%; % formation ([2]; pH = 8.5): 0.84% |
